# Screen size: about 59,000 compounds; about 35 (0.06%) were called active. Inconclusive means that the source gave no clear call. Such entries were picked first, then a sample of the others. No stated cut-off is given here; in the data, active means max dye-equivalent concentration above about 10 nM; inconclusive means between about 1.1 nM and that limit; inactive means weaker than that.
# Experiment: qHTS Assay for Spectroscopic Profiling in Texas Red Spectral Region
# Settings: Compound fluorescence, Texas Red channel, 547/618 nm; hits give high values
# How it was run: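 Fluorescence at ex 547/em 618 nm, normalized against an on-plate Texas Red standard series to give dye-equivalent concentration per compound concentration. Buffer 100 mM Tris, pH 8.0; 15 min RT incubation before CCD imaging.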
row,SMILES,max dye-equivalent concentration
1,C/C(Cl)=C\Cn1c(NCCCn2ccnc2)nc2c1c(=O)n(C)c(=O)n2C,inconclusive: 1.2 nM
2,COC(=O)c1ccc(C(=O)OC)c(NC(=O)COC(=O)C23CC4CC(CC(O)(C4)C2)C3)c1,inconclusive: 1.4 nM
3,O=C(Nc1cnccn1)c1csc2ccccc12,inconclusive: 1.1 nM
4,N#Cc1cccc(NC(=O)CSc2ccccc2)c1,inconclusive: 1.2 nM
5,Cc1ccc(C)c(NC(=O)c2ccccc2O)c1,inconclusive: 1.6 nM
6,Cc1c(C(=O)O)oc2ccc(S(=O)(=O)N(CC(C)C)CC(C)C)cc12,inconclusive: 1.1 nM
7,CN1CCN(c2ccncc2S(=O)(=O)N2CCN(C)CC2)CC1,inactive
8,CC(=O)NC(CCS(C)(=O)=O)C(=O)Nc1ccccc1Cl (centres undefined),inconclusive: 1.2 nM
9,CC(C)c1nc2oc3c(NCc4cccnc4)ncnc3c2c2c1CCC2,inconclusive: 1.4 nM
10,COc1ccc(S(=O)(=O)N(C)CC(=O)Nc2cccc(C(C)=O)c2)cc1,inconclusive: 1.3 nM
11,CC1CCN(C(=O)Cn2c(SCC(=O)Nc3nccs3)nc3ccccc32)CC1,inconclusive: 1.8 nM
12,Cn1nc(-c2ccc(OCC(=O)Nc3cccnc3)cc2)c2ccccc2c1=O,inconclusive: 2.3 nM
13,CCc1ccc(-c2nc(CN3CCC(C(=O)NCc4ccc(F)cc4)CC3)c(C)o2)cc1,inconclusive: 1.9 nM
14,O=c1c(-c2cc(F)cc(F)c2)nc2cnc(N3CCNCC3)nc2n1-c1ccccc1,inactive
15,C#CCSc1nsc(SCC#C)c1C#N,inconclusive: 1.2 nM
16,C=CCN=C(NC#N)SCC(=O)NCc1ccccc1,inconclusive: 1.6 nM
17,CCC(OC(=O)c1cc2sccc2n1C)C(=O)NCc1ccco1 (centres undefined),inconclusive: 1.1 nM
18,O=C(CSc1nnc(C2COc3ccccc3O2)o1)N1CCCc2ccccc21 (centres undefined),inconclusive: 1.4 nM
19,CCCCOc1ccccc1Cn1c(=O)oc2ccc(C)cc21,inconclusive: 1.3 nM
20,O=C(NCc1ccc(F)cc1)C(c1cccs1)N(C(=O)c1csnn1)C1CC1 (centres undefined),inconclusive: 2 nM
21,CCn1c(CSc2nncn2-c2ccc(OC)cc2)nc2cc(S(=O)(=O)N(C)C)ccc21,inconclusive: 1.1 nM
22,COc1ccc(Cl)cc1C(=O)CSc1nnnn1C1CCCC1,inconclusive: 1.6 nM
23,CCN(CC)c1ccc(-c2nn3c(-c4ccccc4OC)nnc3s2)cc1,inconclusive: 1.2 nM
24,CSCC[C@H](NC(=O)Nc1cccc(C(F)(F)F)c1)C(=O)O,inconclusive: 1.6 nM
25,CCOC(=O)CSc1nnc(-c2cccs2)n1-c1ccccc1,inconclusive: 1.4 nM
26,Cc1c(Nc2nc3ccccc3nc2NS(=O)(=O)c2ccccc2)c(=O)n(-c2ccccc2)n1C,inactive
27,N#CCCn1c(SCC(=O)NCCc2ccc(F)cc2)nc2ccccc21,inconclusive: 1.2 nM

# In the list so far, these contain a furan ring, fused or not.
row,SMILES,max dye-equivalent concentration
6,Cc1c(C(=O)O)oc2ccc(S(=O)(=O)N(CC(C)C)CC(C)C)cc12,inconclusive: 1.1 nM
9,CC(C)c1nc2oc3c(NCc4cccnc4)ncnc3c2c2c1CCC2,inconclusive: 1.4 nM
17,CCC(OC(=O)c1cc2sccc2n1C)C(=O)NCc1ccco1 (centres undefined),inconclusive: 1.1 nM

# Carrying on.

row,SMILES,max dye-equivalent concentration
1,COCCCNC(=O)C1CCN(c2nc(C)cc(C)n2)CC1,inconclusive: 1.2 nM
2,CN(C)c1ncc2nc(-c3cc(F)cc(F)c3)c(=O)n(Cc3cccs3)c2n1,inconclusive: 1.3 nM
3,COc1cc(NS(C)(=O)=O)c(OC)cc1NC(=O)c1cccc(F)c1,inconclusive: 1.1 nM
4,NC(=O)c1cnn2c(C(F)(F)F)cc(-c3ccc(F)cc3)nc12,inconclusive: 1.1 nM
5,Cc1nnc2n(Cc3ccccc3)c(=O)c3c4c(sc3n12)CN(Cc1ccccc1)CC4,inconclusive: 1.1 nM
6,COc1ccc(OC)c(S(N)(=O)=O)c1,inconclusive: 2.1 nM
7,CC(=O)C1C(=O)C=C(c2ccco2)CC1c1ccccc1 (centres undefined),inactive
8,O=C(CCCn1c(SCC(=O)NCC2CCCO2)nc2ccccc2c1=O)NCC1CCCO1 (centres undefined),inconclusive: 1.1 nM
9,COCCNC(=O)C(C#N)c1nc2ccccc2nc1N1CCCCCC1 (centres undefined),inactive
10,COC(=O)c1ccc2c(=O)n(CCC3=CCCCC3)c(SCC(=O)N3CCCC3)nc2c1,inconclusive: 1.8 nM
11,O=C(c1cnn2c(C(F)(F)F)cc(-c3ccc4c(c3)OCO4)nc12)N1CCCCC1,inactive
12,O=C(NCC1CCCO1)c1ccc(Cl)c(F)c1F (centres undefined),inconclusive: 1.3 nM
13,CCN(CC)C(=O)CN1C(=O)C2CC=C(Cl)CC2C1=O (centres undefined),inconclusive: 1.4 nM
14,O=C(CCn1c(=O)oc2ccccc21)NCCN1CCc2ccccc2C1,inconclusive: 1.3 nM
15,COC(=O)c1sc(N)c(C(=O)OC)c1CSc1nnnn1C,inconclusive: 1.4 nM
16,CCOCCCN1C(=O)CN(C2CCCCC2)C(=O)C1c1ccc(OCC)c(OC)c1 (centres undefined),inconclusive: 1.2 nM
17,CCCOC(=O)c1ccc(Oc2cn[nH]c2-c2ccc(OC)cc2O)cc1,inconclusive: 1.1 nM
18,CCOc1ccc(NC(=O)Nc2ccc(N(C)C(C)=O)cc2)cc1,inconclusive: 1.8 nM
19,O=C(CN1CCC(NC(=O)c2ccc(F)cc2)CC1)NCc1ccccc1F,inconclusive: 1.1 nM
20,Nc1ncnc2c1ncn2[C@@H]1O[C@@H](COP(=O)(O)OP(=O)(O)OP(=O)(O)OP(=O)(O)OC[C@@H]2O[C@@H](n3cnc4c(N)ncnc43)[C@@H](O)[C@H]2O)[C@H](O)[C@@H]1O,inactive
21,CCNC(=O)C1CC(=O)N(c2ccc(Br)cc2)C1 (centres undefined),inconclusive: 1.2 nM
22,N#CC(C(=O)NCc1ccccc1)c1nc2ccccc2nc1N1CCCC1 (centres undefined),inactive
23,COc1ccccc1NC(=O)CC1C(=O)NCCN1C(=O)Nc1ccc(Cl)c(Cl)c1 (centres undefined),inconclusive: 1.9 nM
24,CC(C)(O)C#Cc1ccc(C(=O)N2CCC(C(N)=O)(N3CCCCC3)CC2)cc1,inconclusive: 1.1 nM
25,CCOC(=O)c1c(NC(=O)CSc2nc3cccnc3n2C)sc(C(C)=O)c1C,inconclusive: 1.2 nM
26,C=C[C@@]1(C)C=C2CC[C@@H]3[C@](C)(CCC[C@@]3(C)C(=O)O)[C@H]2CC1,inactive
27,Cc1ccc(/C=c2\sc3nc(-c4cccs4)nn3c2=O)o1,inconclusive: 1.5 nM
